Data reported in article PMC8653662, “Cytotoxicity and Immunogenicity Evaluation of Synthetic Cell-penetrating Peptides for Methotrexate Delivery” (Iranian Journal of Pharmaceutical Research : IJPR, 2021).

test: MTX loading efficiency of peptide-MTX conjugation (UV-Vis); format: physicochemical; conditions: loaded drug / added drug x 100, supernatant read at 365 nm, MTX 3 equivalent to resin, 48 h

Row | Substance | MTX loading to CPPs (drug loading efficiency)
1 | RRRRRR [R6, linear polyarginine peptide RRRRRR] | %42
2 | WWWWKKKK [W4K4, linear cell-penetrating peptide WWWWKKKK] | %93
3 | NGRWRWRWR [linear cell-penetrating peptide …] | %73
4 | WKWKWKWK [[WK]4, linear cell-penetrating peptide WKWKWKWK] | %87
5 | WRWRWRNGR [linear cell-penetrating peptide …] | %72
6 | WWWWRRRR [W4R4, linear cell-penetrating peptide WWWWRRRR] | %97
7 | WRWRWRWR [[WR]4, linear cell-penetrating peptide WRWRWRWR] | %88
8 | WRWNGRWRW [WRNGRWR, linear cell-penetrating peptide …] | %95
